From patent publication US20050058645A1
These are yes or no findings as the source states them, for the method shown. Some binding calls cover weakened binding; strength is not graded here. For some assays here: Where a sequence is shown, tags or fusion partners need not be part of it.

What was measured:
[1] = target: T1, human IL-13Rα1 (human) (UniProt P78552); experiment: Western blot
T1 sequence: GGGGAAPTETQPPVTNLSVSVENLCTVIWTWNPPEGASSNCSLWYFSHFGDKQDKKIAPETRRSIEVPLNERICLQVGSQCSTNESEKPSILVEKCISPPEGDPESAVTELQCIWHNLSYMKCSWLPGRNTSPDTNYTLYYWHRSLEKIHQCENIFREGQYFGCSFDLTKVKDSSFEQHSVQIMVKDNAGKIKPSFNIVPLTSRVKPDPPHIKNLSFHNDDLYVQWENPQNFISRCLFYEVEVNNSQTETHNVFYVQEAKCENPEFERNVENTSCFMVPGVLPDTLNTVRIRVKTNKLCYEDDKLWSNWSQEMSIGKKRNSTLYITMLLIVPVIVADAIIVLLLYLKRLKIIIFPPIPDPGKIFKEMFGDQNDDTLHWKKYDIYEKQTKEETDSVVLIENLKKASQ

[2] = target: T2, FLAG-tagged IL-4Rα-gp130 chimeric receptor; experiment: Western blot of lysates of transfected COS cells after SDS-PAGE, probed with mAb 1D9
T2 sequence: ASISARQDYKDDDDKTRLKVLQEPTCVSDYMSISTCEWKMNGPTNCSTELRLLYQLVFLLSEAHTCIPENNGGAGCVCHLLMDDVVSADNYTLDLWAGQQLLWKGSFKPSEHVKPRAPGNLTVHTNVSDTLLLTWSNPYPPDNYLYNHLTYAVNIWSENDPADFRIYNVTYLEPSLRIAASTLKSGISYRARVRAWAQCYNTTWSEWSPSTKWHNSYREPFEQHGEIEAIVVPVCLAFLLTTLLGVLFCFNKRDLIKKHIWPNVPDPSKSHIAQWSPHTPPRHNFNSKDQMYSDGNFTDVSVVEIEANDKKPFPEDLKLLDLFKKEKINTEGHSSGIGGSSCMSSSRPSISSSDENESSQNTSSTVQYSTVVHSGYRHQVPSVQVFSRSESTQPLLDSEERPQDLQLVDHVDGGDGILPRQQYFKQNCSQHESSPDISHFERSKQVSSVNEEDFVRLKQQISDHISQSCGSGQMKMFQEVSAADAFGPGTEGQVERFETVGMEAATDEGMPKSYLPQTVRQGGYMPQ

binding [1]: binds
binding [2]: no binding
B1: murine monoclonal antibody 1D9 (antibody, IgG1, V domains shown)
VH: EVKLVESGGGLVKPGGSLKLSCAASGFTFSGYGMSWVRQTPEKRLEWVATISGLGGYTYYPDSVKGRFTISRDNAKNTLYLQMSSLRSDDTAFYYCARRFYGDYVGAMDYWGQGTSVTVSS
VL: DILMTQAAFSNPVTLGTSASISCRSSKSLLHSNGITYLYWYLQKPGQSPQLLIYQMSNLASGVPDRFSCSGSGTDFTLSISRVEAEDVGFYYCAQNLELPFTFGSGTKLEIE
